The experiment addresses DDX43 KH-domain protein KH-89 (human) (UniProt Q9NXZ2). Nature of the experiment: SEC; Sephacryl S-100 high-resolution column calibrated with molecular mass standards; buffer A (25 mM Tris pH 8.0, 0.15 M NaCl, 100 uM Tween 20, 10% glycerol), 0.5 ml/min; both purified.

Results are given in words; binding and its absence hold for the method and conditions named.

B1: DDX43 KH-domain protein KH-89 (domain or fragment, UniProt Q9NXZ2 54-142)
chain: TSRPPEAVAAGHEELPLCFALKSHFVGAVIGRGGSKIKNIQSTTNTTIQIIQEQPESLVKIFGSKAMQTKAKAVIDNFVKKLEENYNSE
Turning to B1, the binding result is on record as “no binding”.

The values are drawn from article PMC7949032, “The KH domain facilitates the substrate specificity and unwinding processivity of DDX43 helicase”.
